From paper PMC8429728, “TNK1 is a ubiquitin-binding and 14-3-3-regulated kinase that can be targeted to block tumor growth” (Nature Communications, 2021)

Legend:
Experiment in all cases: co-IP; FLAG-TNK1 (WT or mutants) precipitated on anti-DYKDDDDK resin from HEK-293T lysate (10 mM HEPES KOH pH 7.5, 150 mM KCl, 0.01% IGEPAL), 1 h 4 °C, washed with PBS; immunoblotted for 14-3-3 or ubiquitin; in Fig. 2c cells treated with 1 uM kinase inhibitors for 4 h
FLAG-TNK1 S434A (human) = molecular target: T1, FLAG-TNK1 S434A (human) (UniProt Q13470)
T1 sequence: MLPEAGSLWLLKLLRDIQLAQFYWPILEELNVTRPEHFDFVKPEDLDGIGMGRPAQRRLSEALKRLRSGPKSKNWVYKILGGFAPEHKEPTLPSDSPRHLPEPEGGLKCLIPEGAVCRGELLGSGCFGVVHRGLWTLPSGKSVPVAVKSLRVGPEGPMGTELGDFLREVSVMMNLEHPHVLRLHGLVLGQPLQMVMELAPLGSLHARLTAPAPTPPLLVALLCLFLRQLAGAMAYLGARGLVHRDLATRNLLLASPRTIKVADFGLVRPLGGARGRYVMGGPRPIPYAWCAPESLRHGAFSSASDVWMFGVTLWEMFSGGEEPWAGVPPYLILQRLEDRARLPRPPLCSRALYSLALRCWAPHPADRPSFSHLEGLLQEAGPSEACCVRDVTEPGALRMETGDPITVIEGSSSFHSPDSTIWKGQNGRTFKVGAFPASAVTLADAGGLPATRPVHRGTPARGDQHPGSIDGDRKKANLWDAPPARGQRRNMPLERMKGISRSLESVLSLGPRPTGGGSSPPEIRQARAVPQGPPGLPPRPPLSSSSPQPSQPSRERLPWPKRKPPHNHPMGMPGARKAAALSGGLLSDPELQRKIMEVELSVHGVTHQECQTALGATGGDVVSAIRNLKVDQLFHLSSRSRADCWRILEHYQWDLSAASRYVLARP

FLAG-TNK1 S505A (human) = molecular target: T2, FLAG-TNK1 S505A (human) (UniProt Q13470)
T2 sequence: T1 sequence with A434S, S505A

FLAG-TNK1 T91A (human) = molecular target: T3, FLAG-TNK1 T91A (human) (UniProt Q13470)
T3 sequence: T1 sequence with T91A, A434S

Measured: binding

14-3-3 (endogenous, isoform not told) (human (endogenous in HEK-293T or A549))
binds: all assays above

Changes are numbered by the printed parent chain. No constants are given. Whether binding was seen depends on the method and setting. In cells and extracts the contact can be indirect. Binding calls can cover weak binding; strength is not graded here. Where a sequence is shown, tags or fusion partners need not be part of it.
